Results from article PMC3448731.
Results are given in words; binding and its absence hold for the method and conditions named. In cells and extracts the contact can be indirect. Here binding means that the protein was enriched with, or labelled near, the bait; the list need not be complete.

Target: T1, Aquaporin-1 purified from rat red blood cells (rat) (UniProt P29975)
T1 sequence: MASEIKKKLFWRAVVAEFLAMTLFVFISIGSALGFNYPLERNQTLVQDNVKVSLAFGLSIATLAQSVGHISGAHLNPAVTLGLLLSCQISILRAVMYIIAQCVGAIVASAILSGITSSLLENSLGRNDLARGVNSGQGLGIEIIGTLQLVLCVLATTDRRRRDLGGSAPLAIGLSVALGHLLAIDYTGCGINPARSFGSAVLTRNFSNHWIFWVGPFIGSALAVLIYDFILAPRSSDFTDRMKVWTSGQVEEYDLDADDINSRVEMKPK
Experiment: SPR + affinity purification with mass spectrometry; purified rat AQP1 amine-coupled on a CM5 chip (Biacore 3000); diluted rat kidney extract injected (200 uL, 20 uL/min, HBS-EP running buffer); bound protein recovered by the RECOVERY program (eluted with 0.1% TFA) and identified by MALDI-TOF/MS (Mascot, MSDB); only the target purified

binding: binds
Substance: Myosin heavy chain, endogenous in rat kidney
